Structures can show the parent of a compound that is named as a salt. The list shows a part of the results. This data set is noisy: repeats of one test often differ as much as different tests do.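 The human kidney-derived cells carry a stably integrated construct of eight TEAD-binding elements driving luciferase, read by luminescence in a drug-repurposing library screen. A compound counts as a hit when its signal is more than five robust Z scores above the plate mean.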
System: HEK293A TEAD-LUC reporter
Test: TEAD-luciferase reporter activity (YAP activation), robust Z score vs plate; higher = stronger YAP/TEAD activation
Settings: 24 h

SMILES | TEAD-luciferase reporter activity (compound concentration: 200 nM) | TEAD-luciferase reporter activity (compound concentration: 2 uM) | TEAD-luciferase reporter activity (compound concentration: 10 uM)
CC(=O)NC[C@H]1CN(c2ccc(N3Cc4cccnc4C3)c(F)c2)C(=O)O1 | inactive: -0.133 | inactive: 0.776 | inactive: 3.38
CC(C)C[C@H](NC(=O)CNC(=O)[C@H](Cc1ccc(O)cc1)NC(=O)[C@H](CO)NC(=O)[C@H](Cc1c[nH]c2ccccc12)NC(=O)[C@H](Cc1c[nH]cn1)NC(=O)[C@@H]1CCC(=O)N1)C(=O)N[C@@H](CCCNC(=N)N)C(=O)N1CCC[C@H]1C(=O)NCC(N)=O [Gonadorelin] | inactive: -2.14 | inactive: 1.04 | active: 6.23
CN(C)CCNC(=O)COc1c2cccc1Cc1cccc(c1OCC(=O)NCCN(C)C)Cc1cccc(c1OCC(=O)NCCN(C)C)Cc1cccc(c1OCC(=O)NCCN(C)C)C2 | inactive: 1.69 | inactive: -0.304 | inactive: -0.589
C[C@H](N[C@@H](CCc1ccccc1)C(=O)O)C(=O)N1CCC[C@H]1C(=O)O | inactive: -0.143 | – | inactive: 1.1
C[C@H](N[C@@H](CCc1ccccc1)C(=O)O)C(=O)N1CCC[C@H]1C(=O)O [enalaprilat] | – | inactive: 1.15 | –
Cc1ccccc1-c1nc(N2CCCCC2)ncc1N(C)C(=O)C(C)(C)c1cc(C(F)(F)F)cc(C(F)(F)F)c1 | inactive: 0.313 | inactive: 1.67 | inactive: 0.132
Cc1cc(CCCOc2c(C)cc(-c3noc(C(F)(F)F)n3)cc2C)on1 [pleconaril] | inactive: -1.16 | inactive: 0.582 | inactive: -2.1
O=C(CCCN1CC=C(n2c(O)nc3ccccc32)CC1)c1ccc(F)cc1 [droperidol, Anesta] | – | inactive: -1.51 | –
O=C(CCCN1CC=C(n2c(O)nc3ccccc32)CC1)c1ccc(F)cc1 | inactive: -2.27 | – | inactive: -0.072
CC1=CCN(C(=O)[C@H](Cc2ccc(C(=N)N)cc2)NS(=O)(=O)c2ccc3c(c2)CN(C)CC3)[C@@H](C(=O)O)C1 | inactive: -0.729 | inactive: -2.39 | inactive: -1.4
CC[C@H](Nc1ncnc2[nH]cnc12)c1oc2ccccc2c(=O)c1-c1cccc(F)c1 [Tenalisib] | inactive: -1.31 | inactive: -1.07 | inactive: 0.389
O=C(CO)[C@@H]1CCCN1C(=O)[C@@H]1CCCN1C(=O)NCc1ccccc1 | inactive: -1.25 | inactive: 0.231 | inactive: 2.18
CS(=O)(=O)c1ccc([C@@H](O)[C@@H](CF)NC(=O)C(Cl)Cl)cc1 | inactive: 0.304 | – | inactive: -0.923
CS(=O)(=O)c1ccc([C@@H](O)[C@@H](CF)NC(=O)C(Cl)Cl)cc1 [Florfenicol] | – | inactive: -0.852 | –
c1coc(CNc2ncnc3[nH]cnc23)c1 [Kinetin] | inactive: -1.21 | inactive: -0.0606 | inactive: -0.647
CCCCCCCCCC(=O)OCCN1CCN(CC/C=C2\c3ccccc3Sc3ccc(C(F)(F)F)cc32)CC1 | inactive: 0.206 | inactive: -0.633 | inactive: -0.757
OCCOCCOCCN1CCC(=C(c2ccccc2)c2ccccc2)CC1 [Pipoxizine] | inactive: 0.611 | inactive: -0.962 | inactive: -0.96

Whole records from above. Values in the order: TEAD-luciferase reporter activity (compound concentration: 200 nM)	TEAD-luciferase reporter activity (compound concentration: 2 uM)	TEAD-luciferase reporter activity (compound concentration: 10 uM)
O=C(CCCN1CC=C(n2c(O)nc3ccccc32)CC1)c1ccc(F)cc1 [droperidol, Anesta] as listed: –	inactive: -1.51	–
OCCOCCOCCN1CCC(=C(c2ccccc2)c2ccccc2)CC1 [Pipoxizine] as listed: inactive: 0.611	inactive: -0.962	inactive: -0.96
CCCCCCCCCC(=O)OCCN1CCN(CC/C=C2\c3ccccc3Sc3ccc(C(F)(F)F)cc32)CC1 as listed: inactive: 0.206	inactive: -0.633	inactive: -0.757

Remaining list, next part

SMILES | TEAD-luciferase reporter activity (compound concentration: 200 nM) | TEAD-luciferase reporter activity (compound concentration: 2 uM) | TEAD-luciferase reporter activity (compound concentration: 10 uM)
CC1(C)[C@H]2CC[C@@H](CNC(=O)c3cccnc3)[C@@H]1C2 | inactive: -0.594 | – | inactive: -0.201
O[C@@](Cc1ncc(CC2(C(F)(F)F)CC2)[nH]1)(c1ccc(-n2cccn2)cc1)C(F)(F)F | inactive: -0.407 | inactive: 0.569 | inactive: -1.57
CN(C)Cc1nccn1-c1ccc(NC(=O)c2cc(C(F)(F)F)nn2-c2ccc3onc(N)c3c2)c(F)c1 [Razaxaban hydrochloride] | inactive: -2.78 | – | inactive: 1.24
CC1(C)OC2[C@@H](CO[C@@]3(COS(N)(=O)=O)OC(C)(C)O[C@@H]23)O1 (stereo partly drawn) [topiramate] | inactive: 1.7 | inactive: -0.511 | inactive: 3.49
CCOC(=O)c1nc(=O)c2cc3cc(OC)c(OC)cc3nc2[nH]1 | inactive: 1.02 | inactive: 4.11 | inactive: 2.78
CCCOc1ccc2c(c1)[C@@H](c1ccc(OC)cc1OCC(=O)O)[C@H](C(=O)O)[C@H]2c1ccc2c(c1)OCO2 | inactive: -1.67 | inactive: -0.246 | inactive: -0.674
CCOC(=O)c1cc(NC(=O)c2cccs2)ccc1OCC(O)CNC(C)(C)C (stereo not drawn) | inactive: -0.835 | inactive: -1.37 | inactive: -0.434
CSCC(=O)NC[C@H]1CN(c2ccc(N3CCOCC3)c(F)c2)C(=O)O1 | inactive: -1.05 | inactive: -1.54 | inactive: -0.491
O=c1cc(-c2nnn[nH]2)oc2c(/C=C/c3ccc(OCCCCc4ccc(F)cc4)cc3)cccc12 | inactive: -0.947 | inactive: -0.751 | inactive: 2.86
COc1ccc(C(=O)Nc2c(Cl)cncc2Cl)cc1OC1CCCC1 [Piclamilast] | inactive: -1.45 | inactive: -1.69 | inactive: 1.78
CCCCC(C(=O)O)C(=O)N(Nc1ccccc1)c1ccccc1 (stereo not drawn) | inactive: -1.74 | inactive: -1.7 | inactive: 0.824
CCN(CC)CCNC(=O)c1ccc(N)c(Cl)c1 [Declopramide] | inactive: -1.25 | inactive: -0.378 | inactive: 1.23
COC(=O)C1=C(C)NC(C)=C(C(=O)OCCN2CCN(C(c3ccccc3)c3ccccc3)CC2)C1c1ccccc1 (stereo not drawn) [analog of manidipine] | inactive: 1.11 | inactive: -1.32 | inactive: 0.207
CCOC(=O)C1=C(C)NC(C)=C(C(=O)OCC)C1c1cccc2nonc12 | inactive: -0.35 | inactive: 0.652 | inactive: -0.61
CC(C)=CCN1Cc2cc(Cl)cc3[nH]c(=S)n(c23)C[C@@H]1C | inactive: -0.62 | inactive: -1.69 | inactive: -1.2
COc1ccc(C(=O)/C(Cc2cc(OC)c(OC)c(OC)c2)=C(\C(=O)O)c2ccc3c(c2)OCO3)cc1 | inactive: -1.8 | active: 9.18 | active: 13.1

Reference: the supplement of paper PMC10735217
